Source: PubChem BioAssay AID493246 (Drosophila RNAi Screening Center, 2011)
Assay: 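Identify essential fly genes by loss of cell viability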 (primary screen). System: Drosophila Kc and S2R+ cells. Reagent: long dsRNA against Drosophila genes. Read-out: 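Cell number per well after knock-down, printed as raw plate values; calls were based on per-plate z-scores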. Direction: Kc cell number and S2R+ cell number: higher = more cells remaining. Active means: 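Active when the per-plate z-score of cell number is 3 or more in the direction of fewer cells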.
The screen tested about 21,000 reagents; this is an unselected part of those that have a named target and a result. Over the whole deposit, 429 (2%) are marked active. 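Values are raw and not normalised between plates; calls rest on per-plate z-scores that were not deposited.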 Unmarked entries are inactive. Not stated in the record: the amount of reagent, the time to read-out.

| predicted target | dsRNA | Kc cell number, rep 1 | Kc cell number, rep 2 | S2R+ cell number, rep 1 | S2R+ cell number, rep 2 |
| --- | --- | --- | --- | --- | --- |
| Peritrophin-A (GeneID 33023) | DRSC20570 | 1.48e6 | 1.53e6 | 1.05e6 | 1.15e6 |
| CG12112 (GeneID 31794) | DRSC17809 | 5.92e5 | – | 8.77e5 | – |
| CG32440 (GeneID 318030) | DRSC11480 | 1.33e6 | 1.50e6 | 1.10e6 | 1.29e6 |
| CG32388 (GeneID 192611) | DRSC08861 | 1.42e6 | 1.61e6 | 1.16e6 | 1.31e6 |
| CG13148 (GeneID 36398) | DRSC06275 | 1.49e6 | 1.51e6 | 1.09e6 | 1.25e6 |
| CRMP (GeneID 40675) | DRSC12073 | 1.23e6 | 1.32e6 | 1.04e6 | 1.14e6 |
| CRMP (GeneID 40675) | DRSC12345 | 1.50e6 | 1.58e6 | 1.23e6 | 1.24e6 |
| CG13384 (GeneID 34160) | DRSC02258 | 1.08e6 | 1.44e6 | 4.13e5 | 3.27e5 |
| Rev1 (GeneID 38079) | DRSC08264 | 1.45e6 | 1.51e6 | 1.27e6 | 1.18e6 |
| CG13197 (GeneID 36253) | DRSC06322 | 1.75e6 | 1.92e6 | 1.43e6 | 1.51e6 |
| Jhbp1 (GeneID 40613) | DRSC12167 | 1.81e6 | 1.82e6 | 1.36e6 | 1.31e6 |
| CG4017 (GeneID 34296) | DRSC02733 | 1.55e6 | 1.60e6 | 1.23e6 | 1.42e6 |
| Gbeta76C (GeneID 40148) | DRSC11174 | 1.81e6 | 1.77e6 | 1.21e6 | 1.33e6 |
| lncRNA:CR42646 (GeneID 10178834) | DRSC04759 | 1.49e6 | 1.62e6 | 1.01e6 | 1.31e6 |
| NiPp1 (GeneID 44748) | DRSC07307 | 1.43e6 | 1.51e6 | 1.13e6 | 1.20e6 |
| Orct (GeneID 42891) | DRSC16777 | 1.57e6 | 1.60e6 | 1.22e6 | 1.26e6 |
| CG15747 (GeneID 32288) | DRSC19713 | 3.83e5 | – | 6.98e5 | – |
| CG32650 (GeneID 326227) | DRSC19899 | 5.50e5 | – | 9.24e5 | – |
| Coq8 (GeneID 32239) | DRSC19900 | 1.50e6 | 1.49e6 | 1.01e6 | 1.07e6 |
| CG9436 (GeneID 35586) | DRSC05005 | 1.49e6 | 1.66e6 | 1.07e6 | 1.09e6 |
| Spt6 (GeneID 44000) | DRSC18836 | 4.55e5 | – | 6.34e5 | – |
| Z600 (GeneID 39673) | DRSC11317 | 1.49e6 | 1.56e6 | 1.32e6 | 1.45e6 |
| CG10737 (GeneID 37202) | DRSC05999 | 1.37e6 | 1.38e6 | 1.07e6 | 1.10e6 |
| Nubpl (GeneID 35452) | DRSC03725 | 1.32e6 | 1.37e6 | 1.09e6 | 1.19e6 |
| RNaseX25 (GeneID 38885) | DRSC11259 | 1.43e6 | 1.46e6 | 1.30e6 | 1.28e6 |
| phr (GeneID 35735) | DRSC07662 | 1.56e6 | 1.59e6 | 1.25e6 | 1.42e6 |
| CG12155 (GeneID 31682) | DRSC17826 | 6.02e5 | – | 7.47e5 | – |
| abo (GeneID 44793) | DRSC02926 | 1.57e6 | 1.61e6 | 1.13e6 | 1.25e6 |
| 14-3-3epsilon (GeneID 42186) | DRSC16370 | 1.37e6 | 1.35e6 | 1.13e6 | 1.22e6 |
| mRpL18 (GeneID 36406) | DRSC06142 | 1.77e6 | 1.70e6 | 1.13e6 | 1.28e6 |
| Socs16D (GeneID 32760) | DRSC20087 | 1.47e6 | 1.48e6 | 9.83e5 | 1.09e6 |
| Vha13 (GeneID 42341) | DRSC16895 | 1.25e6 | 1.21e6 | 9.28e5 | 9.89e5 |
| COX7C (GeneID 50246) | DRSC06831 | 1.29e6 | 1.28e6 | 9.09e5 | 1.02e6 |
| CG3437 (GeneID 39096) | DRSC10366 | 1.43e6 | 1.47e6 | 1.17e6 | 1.28e6 |
| CG7910 (GeneID 40956) | DRSC16341 | 1.55e6 | 1.65e6 | 1.35e6 | 1.50e6 |
| Obp58c (GeneID 37608) | DRSC04166 | 1.46e6 | 1.55e6 | 1.28e6 | 1.37e6 |
| CG12480 (GeneID 32359) | DRSC19460 | 1.54e6 | 1.53e6 | 1.04e6 | 1.21e6 |

Part of the list above, limited to “S2R+ cell number, rep 2”.
CRMP (GeneID 40675) [DRSC12345]	1.24e6
CG13384 (GeneID 34160) [DRSC02258]	3.27e5
Rev1 (GeneID 38079) [DRSC08264]	1.18e6
CG13197 (GeneID 36253) [DRSC06322]	1.51e6
Jhbp1 (GeneID 40613) [DRSC12167]	1.31e6
CG4017 (GeneID 34296) [DRSC02733]	1.42e6
Gbeta76C (GeneID 40148) [DRSC11174]	1.33e6

Next results follow.
| predicted target | dsRNA | Kc cell number, rep 1 | Kc cell number, rep 2 | S2R+ cell number, rep 1 | S2R+ cell number, rep 2 |
| --- | --- | --- | --- | --- | --- |
| twr (GeneID 40815) | DRSC12491 | 1.38e6 | 1.49e6 | 1.16e6 | 1.27e6 |
| CG30349 (GeneID 35885) | DRSC06421 | 1.64e6 | 1.58e6 | 1.32e6 | 1.42e6 |
| CG30349 (GeneID 35885) | DRSC06839 | 1.45e6 | 1.46e6 | 1.27e6 | 1.42e6 |
| CG9973 (retired record) (GeneID 38349) | DRSC08646 | 1.67e6 | 1.03e6 | 1.02e6 | 1.14e6 |
| CG44153 (GeneID 34341) | DRSC02228 | 1.47e6 | 1.45e6 | 1.32e6 | 1.33e6 |
| CG44153 (GeneID 34341) | DRSC02229 | 1.45e6 | 1.57e6 | 1.22e6 | 1.36e6 |
| CG44153 (GeneID 34341) | DRSC02902 | 1.47e6 | 1.53e6 | 1.29e6 | 1.41e6 |
| CG44153 (GeneID 34341) | DRSC02903 | 1.56e6 | 1.69e6 | 1.20e6 | 1.40e6 |
| CG10055 (GeneID 40862) | DRSC12503 | 1.50e6 | 1.58e6 | 1.39e6 | 1.44e6 |
| Sid (GeneID 43390) | DRSC16588 | 1.47e6 | 1.46e6 | 1.04e6 | 1.12e6 |
| eIF4B (GeneID 3355041) | DRSC20983 | 1.54e6 | 1.43e6 | 9.94e5 | 1.09e6 |
| Dlic (GeneID 32057) | DRSC19824 | 5.37e5 | – | 7.29e5 | – |
| CG11905 (GeneID 39895) | DRSC09863 | 1.54e6 | 1.57e6 | 1.39e6 | 1.30e6 |
| lace (GeneID 34910) | DRSC03564 | 1.61e6 | 1.65e6 | 1.41e6 | 1.33e6 |
| Fpgs2 (GeneID 326159) | DRSC00600 | 1.85e6 | 1.67e6 | 1.25e6 | 1.40e6 |
| Etfb (GeneID 43515) | DRSC16324 | 5.23e5 | – | 8.34e5 | – |
| osp (GeneID 34850) | DRSC01409 | 1.51e6 | 1.57e6 | 9.11e5 | 1.12e6 |
| osp (GeneID 34850) | DRSC03585 | 1.18e6 | 1.27e6 | 1.24e6 | 1.21e6 |
| myd (GeneID 42303) | DRSC14762 | 1.52e6 (active) | 1.76e6 | 7.24e5 | 8.02e5 |
| myd (GeneID 42303) | DRSC15512 | 1.41e6 | 1.36e6 | 1.06e6 | 1.18e6 |
| CG8132 (GeneID 41121) | DRSC16383 | 1.47e6 | 1.63e6 | 1.23e6 | 1.38e6 |
| glu (GeneID 35001) | DRSC03539 | 1.33e6 | 1.41e6 | 1.31e6 | 1.36e6 |
